Data reported in PMC5722986.
These are yes or no findings as the source states them, for the method shown. In cells and extracts the contact can be indirect.

Molecular target: T1, FcγRI (CD64) (mouse (endogenous in Raw264.7)) (UniProt P26151)
T1 sequence: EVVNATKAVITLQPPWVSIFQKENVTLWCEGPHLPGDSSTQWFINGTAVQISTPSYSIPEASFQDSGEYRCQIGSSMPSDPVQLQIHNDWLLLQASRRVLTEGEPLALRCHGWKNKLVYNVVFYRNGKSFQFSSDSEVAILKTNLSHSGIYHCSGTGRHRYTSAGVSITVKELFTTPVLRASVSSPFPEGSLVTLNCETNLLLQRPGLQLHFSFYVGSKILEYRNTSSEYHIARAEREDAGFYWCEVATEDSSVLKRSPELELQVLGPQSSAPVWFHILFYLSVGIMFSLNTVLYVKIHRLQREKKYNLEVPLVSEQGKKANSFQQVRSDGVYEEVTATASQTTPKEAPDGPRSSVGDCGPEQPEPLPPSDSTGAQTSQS
Test: co-IP; Raw264.7 cells lysed in RIPA buffer; homogenates incubated with protein G beads pre-absorbed with anti-CD64 antibody; pre- and post-IP supernatants and beads blotted for GPER1

B1: G protein-coupled estrogen receptor 1 (receptor, UniProt Q8BMP4 1-375)
chain: MDATTPAQTVGVEIYLGPVWPAPSNSTPLALNLSLALREDAPGNLTGDLSEHQQYVIALFLSCLYTIFLFPIGFVGNILILVVNISFREKMTIPDLYFINLAAADLILVADSLIEVFNLDEQYYDIAVLCTFMSLFLQINMYSSVFFLTWMSFDRYLALAKAMRCGLFRTKHHARLSCGLIWMASVSATLVPFTAVHLRHTEEACFCFADVREVQWLEVTLGFIMPFAIIGLCYSLIVRALIRAHRHRGLRPRRQKALRMIFAVVLVFFICWLPENVFISVHLLQWTQPGDTPCKQSFRHAYPLTGHIVNLAAFSNSCLNPLIYSFLGETFRDKLRLYVEQKTSLPALNRFCHATLKAVIPDSTEQSEVRFSSAV
  binding: no binding
